Data reported in paper doi:10.1101/2022.09.23.508845.
No constants are given. Whether binding was seen depends on the method and setting. In cells and extracts the contact can be indirect. A result given as binding can be weak or reduced; the word gives no strength.

Legend:
HaloTag TELO2 (human) = experiment: FRET or BRET
[1] = biological target: 3xFlag-TELO2 full length (human); experiment: co-IP

B1: GNB1L (NanoBRET construct) (protein, UniProt Q9BYB4 1-327)
chain: MTAPCPPPPPDPQFVLRGTQSPVHALHFCEGAQAQGRPLLFSGSQSGLVHIWSLQTRRAVTTLDGHGGQCVTWLQTLPQGRQLLSQGRDLKLCLWDLAEGRSAVVDSVCLESVGFCRSSILAGGQPRWTLAVPGRGSDEVQILEMPSKTSVCALKPKADAKLGMPMCLRLWQADCSSRPLLLAGYEDGSVVLWDVSEQKVCSRIACHEEPVMDLDFDSQKARGISGSAGKALAVWSLDWQQALQVRGTHELTNPGIAEVTIRPDRKILATAGWDHRIRVFHWRTMQPLAVLAFHSAAVQCVAFTADGLLAAGSKDQRISLWSLYPRA
- binding (HaloTag TELO2 (human)): binds

B2: GNB1L (endogenous) (protein, UniProt Q9BYB4 1-327)
chain: B1 chain
- binding [1]: binds
